The source of these data is article PMC9348797.

In this test the target is T1, KCTD7-FLAG (endogenous KCTD7 with a knocked-in FLAG tag) (human (endogenous in HeLa)) (UniProt Q96MP8).
T1 sequence: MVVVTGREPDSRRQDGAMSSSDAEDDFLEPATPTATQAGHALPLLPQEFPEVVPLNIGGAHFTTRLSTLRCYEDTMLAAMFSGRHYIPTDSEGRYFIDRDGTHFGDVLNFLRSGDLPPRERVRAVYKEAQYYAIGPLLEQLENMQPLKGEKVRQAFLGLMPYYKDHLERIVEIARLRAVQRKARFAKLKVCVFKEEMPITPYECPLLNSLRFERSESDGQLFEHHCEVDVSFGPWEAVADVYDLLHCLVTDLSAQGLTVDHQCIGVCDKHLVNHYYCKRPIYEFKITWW
The experiment in a line: affinity purification with mass spectrometry; anti-FLAG M2 agarose on lysate of KCTD7-FLAG knock-in HeLa cells (20 mM tris-Cl pH 7.4, 100 mM NaCl, 0.2 mM EDTA, 0.5% NP-40), 4°C overnight, eluted with FLAG peptide, SDS-PAGE bands sequenced by MS.

These are yes or no findings as the source states them, for the method shown. Binding seen in cells or lysates may run through a third protein. These calls come from enrichment with a bait or labelling near it, and not all partners need be listed. Where a sequence is shown, tags or fusion partners need not be part of it.

B1: CLN5 (endogenous, HeLa) (protein, UniProt O75503 1-358)
chain: MAQEVDTAQGAEMRRGAGAARGRASWCWALALLWLAVVPGWSRVSGIPSRRHWPVPYKRFDFRPKPDPYCQAKYTFCPTGSPIPVMEGDDDIEVFRLQAPVWEFKYGDLLGHLKIMHDAIGFRSTLTGKNYTMEWYELFQLGNCTFPHLRPEMDAPFWCNQGAACFFEGIDDVHWKENGTLVQVATISGNMFNQMAKWVKQDNETGIYYETWNVKASPEKGAETWFDSYDCSKFVLRTFNKLAEFGAEFKNIETNYTRIFLYSGEPTYLGNETSVFGPTGNKTLGLAIKRFYYPFKPHLPTKEFLLSLLQIFDAVIVHKQFYLFYNFEYWFLPMKFPFIKITYEEIPLPIRNKTLSGL
modifications: heavily N-glycosylated (about 50 kDa, about 35 kDa after PNGase F)
Consider B1, for which the binding entry is recorded as “binds”.
